Experimental findings from the supplement of paper PMC6411743 are described below.

Protein sequences, listed by entry. Tags and fused reporters are not part of them. Lines headed by an entry give the natural chain unless they say otherwise; changes in a name come on top.
UniProt Q9P2D1: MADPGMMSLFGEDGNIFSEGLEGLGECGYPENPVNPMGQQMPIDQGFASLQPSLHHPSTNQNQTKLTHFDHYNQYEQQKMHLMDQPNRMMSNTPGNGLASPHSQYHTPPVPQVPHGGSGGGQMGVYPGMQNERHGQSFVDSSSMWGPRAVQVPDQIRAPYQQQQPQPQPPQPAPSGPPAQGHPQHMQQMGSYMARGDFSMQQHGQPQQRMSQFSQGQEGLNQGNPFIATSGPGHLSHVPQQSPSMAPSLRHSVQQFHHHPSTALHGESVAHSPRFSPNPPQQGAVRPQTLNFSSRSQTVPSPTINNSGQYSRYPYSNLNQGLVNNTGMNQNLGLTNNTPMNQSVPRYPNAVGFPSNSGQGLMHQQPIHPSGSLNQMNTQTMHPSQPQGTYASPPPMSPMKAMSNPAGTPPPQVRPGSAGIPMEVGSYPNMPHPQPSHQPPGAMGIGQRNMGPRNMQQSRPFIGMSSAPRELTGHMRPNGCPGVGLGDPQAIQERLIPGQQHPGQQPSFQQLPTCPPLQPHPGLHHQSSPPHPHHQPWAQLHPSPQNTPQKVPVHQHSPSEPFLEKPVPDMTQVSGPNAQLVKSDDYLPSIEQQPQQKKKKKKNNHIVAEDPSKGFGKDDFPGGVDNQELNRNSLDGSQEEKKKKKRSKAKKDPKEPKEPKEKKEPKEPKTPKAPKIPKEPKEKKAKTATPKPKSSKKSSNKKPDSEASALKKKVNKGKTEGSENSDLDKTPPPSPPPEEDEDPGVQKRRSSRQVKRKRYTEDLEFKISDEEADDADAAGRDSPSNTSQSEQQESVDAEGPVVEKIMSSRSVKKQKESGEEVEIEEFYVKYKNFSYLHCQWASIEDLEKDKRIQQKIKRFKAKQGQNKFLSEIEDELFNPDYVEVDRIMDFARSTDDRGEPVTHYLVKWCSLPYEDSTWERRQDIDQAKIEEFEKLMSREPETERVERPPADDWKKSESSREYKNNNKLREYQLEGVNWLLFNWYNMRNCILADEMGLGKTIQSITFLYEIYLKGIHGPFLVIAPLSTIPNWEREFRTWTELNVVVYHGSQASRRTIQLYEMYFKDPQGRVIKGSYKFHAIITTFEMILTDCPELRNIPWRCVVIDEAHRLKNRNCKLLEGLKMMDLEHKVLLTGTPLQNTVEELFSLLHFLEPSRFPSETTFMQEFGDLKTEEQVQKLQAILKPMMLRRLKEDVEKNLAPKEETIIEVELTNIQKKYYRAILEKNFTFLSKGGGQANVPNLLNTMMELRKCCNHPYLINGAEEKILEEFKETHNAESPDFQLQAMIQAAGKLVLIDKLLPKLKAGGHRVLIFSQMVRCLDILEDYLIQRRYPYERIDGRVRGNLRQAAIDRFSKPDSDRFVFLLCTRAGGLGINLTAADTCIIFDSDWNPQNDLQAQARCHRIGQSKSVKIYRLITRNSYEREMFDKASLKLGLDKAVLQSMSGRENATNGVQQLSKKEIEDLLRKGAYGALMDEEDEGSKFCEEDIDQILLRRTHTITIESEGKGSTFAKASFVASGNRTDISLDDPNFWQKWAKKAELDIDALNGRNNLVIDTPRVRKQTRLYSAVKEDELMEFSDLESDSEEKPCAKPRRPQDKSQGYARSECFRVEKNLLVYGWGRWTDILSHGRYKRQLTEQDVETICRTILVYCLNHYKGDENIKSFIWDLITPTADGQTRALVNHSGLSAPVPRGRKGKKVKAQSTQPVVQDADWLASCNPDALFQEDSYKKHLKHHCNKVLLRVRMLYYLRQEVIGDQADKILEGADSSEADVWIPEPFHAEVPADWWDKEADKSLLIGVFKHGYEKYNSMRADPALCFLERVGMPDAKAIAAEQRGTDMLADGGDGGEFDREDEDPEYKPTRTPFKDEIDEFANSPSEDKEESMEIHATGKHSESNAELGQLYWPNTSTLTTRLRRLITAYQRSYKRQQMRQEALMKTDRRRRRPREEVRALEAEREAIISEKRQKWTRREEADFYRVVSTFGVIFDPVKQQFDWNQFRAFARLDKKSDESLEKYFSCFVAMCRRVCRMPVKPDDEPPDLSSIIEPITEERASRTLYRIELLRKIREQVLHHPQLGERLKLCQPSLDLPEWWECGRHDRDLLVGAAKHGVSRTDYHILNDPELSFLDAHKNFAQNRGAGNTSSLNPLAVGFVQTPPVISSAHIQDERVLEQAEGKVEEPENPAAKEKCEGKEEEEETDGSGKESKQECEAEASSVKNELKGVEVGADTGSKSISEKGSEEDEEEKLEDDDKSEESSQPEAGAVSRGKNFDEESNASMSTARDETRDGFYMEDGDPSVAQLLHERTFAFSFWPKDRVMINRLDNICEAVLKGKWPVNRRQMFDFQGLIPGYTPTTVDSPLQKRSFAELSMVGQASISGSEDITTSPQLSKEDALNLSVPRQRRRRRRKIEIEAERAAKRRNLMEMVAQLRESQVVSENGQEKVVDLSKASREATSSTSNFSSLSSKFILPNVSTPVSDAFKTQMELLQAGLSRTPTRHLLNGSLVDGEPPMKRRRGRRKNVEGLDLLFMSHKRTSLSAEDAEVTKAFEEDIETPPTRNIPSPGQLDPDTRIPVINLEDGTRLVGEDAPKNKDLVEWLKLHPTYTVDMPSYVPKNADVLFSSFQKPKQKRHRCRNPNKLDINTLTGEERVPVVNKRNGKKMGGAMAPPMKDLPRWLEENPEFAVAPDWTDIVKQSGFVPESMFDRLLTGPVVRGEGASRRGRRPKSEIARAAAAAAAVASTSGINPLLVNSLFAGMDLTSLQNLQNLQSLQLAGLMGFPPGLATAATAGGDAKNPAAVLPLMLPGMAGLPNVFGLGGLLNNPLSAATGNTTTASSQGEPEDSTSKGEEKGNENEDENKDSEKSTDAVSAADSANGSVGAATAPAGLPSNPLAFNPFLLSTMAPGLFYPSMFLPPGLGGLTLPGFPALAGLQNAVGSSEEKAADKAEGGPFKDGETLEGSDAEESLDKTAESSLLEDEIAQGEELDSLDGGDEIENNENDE
UniProt Q9NVX0: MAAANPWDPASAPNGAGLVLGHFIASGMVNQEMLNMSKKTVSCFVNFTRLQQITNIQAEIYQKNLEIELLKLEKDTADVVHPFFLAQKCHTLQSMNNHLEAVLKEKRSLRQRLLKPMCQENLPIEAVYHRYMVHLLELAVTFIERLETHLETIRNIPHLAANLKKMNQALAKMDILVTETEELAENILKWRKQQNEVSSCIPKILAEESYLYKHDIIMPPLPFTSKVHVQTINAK
UniProt Q9NVM9, whole entry: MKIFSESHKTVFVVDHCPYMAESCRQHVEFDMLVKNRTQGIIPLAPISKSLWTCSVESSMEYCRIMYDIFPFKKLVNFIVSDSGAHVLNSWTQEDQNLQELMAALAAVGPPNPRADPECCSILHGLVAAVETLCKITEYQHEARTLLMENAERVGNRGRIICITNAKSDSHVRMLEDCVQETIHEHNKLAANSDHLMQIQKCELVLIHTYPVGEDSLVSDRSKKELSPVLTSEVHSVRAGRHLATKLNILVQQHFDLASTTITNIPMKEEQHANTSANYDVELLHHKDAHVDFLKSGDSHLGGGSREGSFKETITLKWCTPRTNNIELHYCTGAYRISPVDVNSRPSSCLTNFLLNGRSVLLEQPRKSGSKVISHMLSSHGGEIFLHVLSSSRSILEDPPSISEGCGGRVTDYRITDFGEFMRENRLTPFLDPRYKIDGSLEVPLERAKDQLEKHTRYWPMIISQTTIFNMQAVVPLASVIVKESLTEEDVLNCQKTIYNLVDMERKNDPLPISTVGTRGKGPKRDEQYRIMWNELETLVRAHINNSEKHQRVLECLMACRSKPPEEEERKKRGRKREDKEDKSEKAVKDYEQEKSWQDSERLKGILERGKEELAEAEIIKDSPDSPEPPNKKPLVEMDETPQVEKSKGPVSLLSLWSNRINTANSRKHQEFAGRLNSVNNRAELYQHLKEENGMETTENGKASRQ
UniProt Q9NS73: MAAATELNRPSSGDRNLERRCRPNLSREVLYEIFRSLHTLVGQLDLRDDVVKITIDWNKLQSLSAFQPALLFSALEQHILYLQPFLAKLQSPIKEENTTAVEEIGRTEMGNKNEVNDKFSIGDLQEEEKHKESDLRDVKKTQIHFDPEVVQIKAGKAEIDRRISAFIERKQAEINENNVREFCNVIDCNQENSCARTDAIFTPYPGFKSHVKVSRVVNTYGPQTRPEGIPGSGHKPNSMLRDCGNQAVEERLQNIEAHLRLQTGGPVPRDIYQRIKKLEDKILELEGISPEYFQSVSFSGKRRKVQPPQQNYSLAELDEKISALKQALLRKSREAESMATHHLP
UniProt Q9NYF8, whole entry: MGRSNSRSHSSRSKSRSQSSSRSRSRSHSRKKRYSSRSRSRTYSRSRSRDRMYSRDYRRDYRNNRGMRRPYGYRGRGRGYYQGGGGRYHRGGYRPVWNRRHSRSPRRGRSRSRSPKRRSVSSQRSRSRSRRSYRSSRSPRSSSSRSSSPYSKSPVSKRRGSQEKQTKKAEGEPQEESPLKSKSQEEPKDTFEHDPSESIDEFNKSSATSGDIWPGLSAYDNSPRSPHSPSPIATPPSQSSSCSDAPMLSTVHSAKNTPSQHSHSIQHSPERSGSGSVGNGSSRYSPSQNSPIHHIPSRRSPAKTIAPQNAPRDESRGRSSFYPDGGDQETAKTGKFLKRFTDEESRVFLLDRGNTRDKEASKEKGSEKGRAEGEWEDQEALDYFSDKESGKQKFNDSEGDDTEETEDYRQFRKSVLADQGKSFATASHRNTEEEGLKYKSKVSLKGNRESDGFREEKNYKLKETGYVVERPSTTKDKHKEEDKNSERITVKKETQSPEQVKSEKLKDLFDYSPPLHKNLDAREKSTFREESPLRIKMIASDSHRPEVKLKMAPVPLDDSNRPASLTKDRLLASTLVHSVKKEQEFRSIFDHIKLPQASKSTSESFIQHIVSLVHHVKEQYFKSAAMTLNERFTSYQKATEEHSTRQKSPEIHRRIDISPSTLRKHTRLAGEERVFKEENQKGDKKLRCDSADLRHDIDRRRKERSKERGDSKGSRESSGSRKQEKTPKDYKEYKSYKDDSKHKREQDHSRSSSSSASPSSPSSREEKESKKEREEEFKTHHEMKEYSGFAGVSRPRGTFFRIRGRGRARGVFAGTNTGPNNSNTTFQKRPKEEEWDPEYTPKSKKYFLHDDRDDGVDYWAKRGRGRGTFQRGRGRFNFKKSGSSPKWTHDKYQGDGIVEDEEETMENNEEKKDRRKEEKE
UniProt Q9NYP7: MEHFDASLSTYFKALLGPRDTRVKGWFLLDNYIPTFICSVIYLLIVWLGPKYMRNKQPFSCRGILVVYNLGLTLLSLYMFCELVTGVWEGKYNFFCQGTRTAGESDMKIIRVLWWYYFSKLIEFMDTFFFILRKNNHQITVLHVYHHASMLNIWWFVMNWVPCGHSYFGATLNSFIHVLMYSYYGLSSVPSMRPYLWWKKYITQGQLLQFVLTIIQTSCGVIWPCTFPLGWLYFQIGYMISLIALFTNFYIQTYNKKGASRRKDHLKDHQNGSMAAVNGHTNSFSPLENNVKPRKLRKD
UniProt Q9NX05: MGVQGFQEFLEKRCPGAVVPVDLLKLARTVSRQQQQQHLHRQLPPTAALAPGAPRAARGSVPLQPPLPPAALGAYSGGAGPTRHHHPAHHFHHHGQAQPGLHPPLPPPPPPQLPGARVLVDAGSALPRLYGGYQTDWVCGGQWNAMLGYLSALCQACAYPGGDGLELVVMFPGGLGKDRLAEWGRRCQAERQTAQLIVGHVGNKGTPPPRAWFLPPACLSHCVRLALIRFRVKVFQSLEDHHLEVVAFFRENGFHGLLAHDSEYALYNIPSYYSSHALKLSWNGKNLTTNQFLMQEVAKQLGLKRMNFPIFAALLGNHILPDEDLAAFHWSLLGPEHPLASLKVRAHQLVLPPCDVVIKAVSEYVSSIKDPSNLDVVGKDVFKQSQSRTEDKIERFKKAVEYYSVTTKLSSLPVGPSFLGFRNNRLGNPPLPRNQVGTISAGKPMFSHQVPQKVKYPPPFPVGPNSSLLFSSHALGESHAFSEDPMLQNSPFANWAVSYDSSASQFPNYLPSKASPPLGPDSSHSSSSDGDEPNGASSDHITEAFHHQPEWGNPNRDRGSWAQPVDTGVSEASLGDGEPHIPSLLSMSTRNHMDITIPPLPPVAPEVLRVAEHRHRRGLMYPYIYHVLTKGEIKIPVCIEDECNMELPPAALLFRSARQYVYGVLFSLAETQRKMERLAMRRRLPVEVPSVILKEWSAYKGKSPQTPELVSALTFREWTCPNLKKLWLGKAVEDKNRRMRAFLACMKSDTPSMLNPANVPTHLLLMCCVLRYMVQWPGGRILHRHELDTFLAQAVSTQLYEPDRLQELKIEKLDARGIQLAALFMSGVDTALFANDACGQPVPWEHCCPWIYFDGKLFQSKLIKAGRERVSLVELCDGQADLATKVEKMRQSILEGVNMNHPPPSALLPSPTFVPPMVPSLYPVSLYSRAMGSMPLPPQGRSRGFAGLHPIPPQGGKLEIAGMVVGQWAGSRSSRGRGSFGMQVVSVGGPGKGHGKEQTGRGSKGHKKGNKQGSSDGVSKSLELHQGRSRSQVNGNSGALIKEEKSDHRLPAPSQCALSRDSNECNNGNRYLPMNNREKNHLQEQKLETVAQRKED

± gives the standard deviation of the averaged measurements. The entries are a selection whose mix differs from that of the whole data set. Small differences around the control level are noise.

Compound in the assay: Nc1ncnc2c1ncn2[C@@H]1O[C@H](COP(=O)(O)OP(=O)(O)NP(=O)(O)O)[C@@H](O)[C@H]1O [adenylyl imidodiphosphate]
Put plainly: NP40-soluble protein abundance relative to vehicle (solubility fold change) (ratio); higher = more soluble protein in presence of AMP-PNP. The method, boiled down: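 Eight concentrations, 0.1 to 10 mM, were tested on Jurkat crude lysate for 10 min at room temperature and then 3 min at 37 °C, in three independent experiments. The lysate was solubilised with 0.8% NP40 and benzonase, ultracentrifuged, and the supernatant TMT-labelled for LC-MS/MS. Each value is the fold change against the detergent-processed vehicle in its own replicate, from vsn-normalised intensities.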

Regarding UCKL1 (UniProt Q9NWZ5), the NP40-soluble protein abundance was 1.015 ± 0.0084 (concentration: 0.1mM) and 0.981 ± 0.043 (concentration: 0.5mM).

For the target UniProt Q9NWV4, the NP40-soluble protein abundance runs as follows: (concentration: 0.1mM) 0.956 ± 0.024; (concentration: 0.5mM) 1.02 ± 0.045.

In the case of UniProt Q9P0U3 and related entries, the NP40-soluble protein abundance is 0.999 ± 0.024 (concentration: 0.1mM) and 0.984 ± 0.044 (concentration: 0.5mM).

For the target CHD7 (UniProt Q9P2D1), the NP40-soluble protein abundance stood at 0.978 ± 0.014 (concentration: 0.1mM) and 0.956 ± 0.013 (concentration: 0.5mM).

Turning to UniProt Q9NZN5-2|Q9NZN5, the NP40-soluble protein abundance runs as follows: (concentration: 0.1mM) 0.9918 ± 0.0028; (concentration: 0.5mM) 0.966 ± 0.038.

Consider UniProt Q9NRL3 and related entries, for which the NP40-soluble protein abundance is 0.987 ± 0.044 (concentration: 0.1mM) and 0.977 ± 0.056 (concentration: 0.5mM).

Turning to UniProt Q9NVX0 and related entries, the NP40-soluble protein abundance runs as follows: (concentration: 0.1mM) 1.01 ± 0.039; (concentration: 0.5mM) 1.01 ± 0.055.

As for ZBTB40 (UniProt Q9NUA8), the NP40-soluble protein abundance turned out to be 1 ± 0.044 (concentration: 0.1mM) and 0.963 ± 0.01 (concentration: 0.5mM).

Take UniProt Q9NVM9: the NP40-soluble protein abundance was 1 ± 0.035 (concentration: 0.1mM) and 0.987 ± 0.041 (concentration: 0.5mM).

Turning to UniProt Q9NS73 and related entries, the NP40-soluble protein abundance reads like this: (concentration: 0.1mM) 1.016 ± 0.0099; (concentration: 0.5mM) 1.03 ± 0.028.

As to TXNL4B (UniProt Q9NX01), the NP40-soluble protein abundance (concentration: 0.1mM) came to 0.979 ± 0.027 and the NP40-soluble protein abundance (concentration: 0.5mM) turned out to be 1.02 ± 0.057.

For UniProt Q9NXR1 and related entries, the NP40-soluble protein abundance by setting is: (concentration: 0.1mM) 1.05 ± 0.015; (concentration: 0.5mM) 0.9848 ± 0.0044.

On to UniProt Q9NYU2 and related entries, for which the NP40-soluble protein abundance was determined as 1.02 ± 0.036 (concentration: 0.1mM) and 0.985 ± 0.072 (concentration: 0.5mM).

SACS (UniProt Q9NZJ4): the NP40-soluble protein abundance is 0.997 ± 0.053 (concentration: 0.1mM) and 0.957 ± 0.11 (concentration: 0.5mM).

With UniProt Q9NYF8 and related entries, the NP40-soluble protein abundance is, setting by setting: (concentration: 0.1mM) 0.9989 ± 0.0014; (concentration: 0.5mM) 1.051 ± 0.005.

As to UniProt Q9NYP7 and related entries, the NP40-soluble protein abundance (concentration: 0.1mM) came to 1.03 ± 0.11 and the NP40-soluble protein abundance (concentration: 0.5mM) came out at 1.01 ± 0.14.

Regarding FAM120C (UniProt Q9NX05), the NP40-soluble protein abundance was 1.01 ± 0.029 (concentration: 0.1mM) and 0.978 ± 0.032 (concentration: 0.5mM).

Take UniProt Q9NQ29 and related entries: the NP40-soluble protein abundance (concentration: 0.1mM) came to 1.05 ± 0.02 and the NP40-soluble protein abundance (concentration: 0.5mM) worked out at 1.03 ± 0.064.

UniProt Q9NTX5 and related entries: the NP40-soluble protein abundance is, setting by setting: (concentration: 0.1mM) 0.9691 ± 0.0036; (concentration: 0.5mM) 0.965 ± 0.023.

In the case of PDP2 (UniProt Q9P2J9), the NP40-soluble protein abundance is, setting by setting: (concentration: 0.1mM) 0.977 ± 0.042; (concentration: 0.5mM) 0.998 ± 0.051.

On to UniProt Q9NZ08 and related entries, for which the NP40-soluble protein abundance is, setting by setting: (concentration: 0.1mM) 1.009 ± 0.0048; (concentration: 0.5mM) 0.993 ± 0.03.

As for BIRC6 (UniProt Q9NR09), the NP40-soluble protein abundance turned out to be 0.997 ± 0.016 (concentration: 0.1mM) and 0.971 ± 0.036 (concentration: 0.5mM).
